The experiment deals with T1, HA-tagged HT-Rad21 (N-terminally HaloTag-tagged zebrafish cohesin subunit Rad21a) (zebrafish) (UniProt Q6TEL1).
T1 sequence: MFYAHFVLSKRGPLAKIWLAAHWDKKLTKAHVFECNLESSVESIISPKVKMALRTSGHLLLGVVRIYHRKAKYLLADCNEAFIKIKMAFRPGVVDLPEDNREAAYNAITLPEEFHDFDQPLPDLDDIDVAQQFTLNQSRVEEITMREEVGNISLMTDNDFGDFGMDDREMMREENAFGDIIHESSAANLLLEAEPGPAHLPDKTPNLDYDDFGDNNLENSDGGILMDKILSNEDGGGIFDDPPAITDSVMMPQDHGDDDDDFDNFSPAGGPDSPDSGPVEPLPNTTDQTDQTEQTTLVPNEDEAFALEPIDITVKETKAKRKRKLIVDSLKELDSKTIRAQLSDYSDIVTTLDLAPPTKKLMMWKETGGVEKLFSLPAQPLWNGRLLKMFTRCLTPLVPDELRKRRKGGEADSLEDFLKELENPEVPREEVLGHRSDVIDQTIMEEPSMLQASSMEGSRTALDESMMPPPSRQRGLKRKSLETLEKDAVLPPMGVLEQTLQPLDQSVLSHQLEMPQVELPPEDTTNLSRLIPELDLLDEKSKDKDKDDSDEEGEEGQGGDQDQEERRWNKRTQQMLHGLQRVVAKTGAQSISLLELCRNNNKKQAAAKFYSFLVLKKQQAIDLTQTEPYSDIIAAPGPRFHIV
In words: co-IP; anti-HA agarose beads (Pierce HA-Tag IP/Co-IP Kit) with lysate of about 165 deyolked shield-stage embryos in Pierce IP Lysis Buffer, incubated overnight; uninjected wild-type embryos as negative control; blots with anti-Smc3 and anti-HA.

Consider 1 molecule from publication PMC11842872.

Results are given in words; binding and its absence hold for the method and conditions named. In cells and extracts the contact can be indirect. Some binding calls cover weakened binding; strength is not graded here. Tags and fused reporters may be left off the sequences shown.

B1: Smc3 (protein, UniProt Q803N2 1-1216)
chain: MYIKQVIIQGFRSYRDQTVVDPFGSKHNVIVGRNGSGKSNFFYAIQFVLSDEFSHLRPEQRLALLHEGTGPRVISAFVEIIFDNSDNRLPIDKEEVSLRRVIGAKKDQYFLDKKMVTKNDVMNLLESAGFSRSNPYYIVKQGKINQMATAPDSQRLKLLREVAGTRVYDERKEESISLMKETEGKREKINELLKYIEERLHTLEDEKEELAQYQKWDKMRRALEYTIYNQELNETRAKLDELSSKRETCGDKSRQLRDAQQDARDKVEETERVVRELKSRISAMKEEKEQLSAERQEQIKQRTKLELKAKDLQDELAGNSEQRKRLLKERQKLLEKIEEKQKELQETEPKFNTVKEKEERGIARLAQATQERTDLYAKQGRGSQFTSKEERDKWIKKELKSLDQAINDKKRQIAAIHKDLEDTEQNKERNLEQYNKLDQDLNEVKTRVEELDKKYYEVKNRKDELQSERNYLWREENAEQQALAAKREDLEKKQQLLRAATGKAILNGIDSINKVLEHFRRKGINQHVINGYHGIVMNNFECEPAFYTCVEVTAGTRLFYHIVETDEVSTKILMEFNKMNLPGEVTFLPLSKLDVRDTAYPETNDAIPMISKLRYSQNFDKAFKHVFGKTLICRSMEVSTQLARAFTMDCITLEGDQVSHRGALTGGYYDTRKSRLELQKDMRKAEEELGELEAKLNENLRRNIETINNEIDQLMNQMQQIETQQRKFKASRDSILSEMKMLKEKRQQSEKTFMPKQRSLQSLEASLHAMESTRESLKAELGADLLSQLSLEDQRRVDDLNDEIRQLQQDNRQLLNERIKLEGIMTRVETYLNENLRKRLDQVEQELNELRETEGGTVLTATTSELDGINKRIKDTMARSEDLDTLIDKTEVEIKEHQKSMERWKNIEKEQNEAINHDTKELEKMTNRQGMLLKKKEECMKKIRELGSLPQEAFEKYQTLTLKQLFRKLEQCNTELKKYSHVNKKALDQFVNFSEQKEKLIKRQDELDRGYKSIMELMNVLELRKYEAIQLTFKQVSKNFSEVFQKLVPGGKATLVMKKGDTEGGQSQDEGEGGDSERASSSQSSVPSVDQFTGVGIRVSFTGKQGEMREMQQLSGGQKSLVALALIFAIQKCDPAPFYLFDEIDQALDAQHRKAASDMIMELAGHAQFITTTFRPELLESADKFYGVKFRNKVSHIDVISAEQAKDFVEDDTTHG
For B1, the binding result is “binds”.
